Results of single-concentration screens

Measurements from “University of Dundee, Small-Polar-MMV Screening Library” (2021), ChEMBL document CHEMBL3988442.

T. brucei: 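Whole-parasite assay of Trypanosoma brucei over 72 hours; the read-out is not stated. Concentration: 30 µM. Direction is inferred from retests: higher values go with stronger inhibition. Values scatter widely below zero; nearly all retest evidence comes from the higher of the two concentrations used. Of about 64,000 compounds tested this way, about 940 (1.5%) reached 50% or more in at least one test.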
Toxoplasma: 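Assay of Toxoplasma gondii numbers, read through their beta-galactosidase reporter with a colour substrate. Compounds at 10 µM. Higher reads as fewer parasites (inferred from which compounds were picked for retests). Size under these conditions: about 67,000 compounds, about 260 of them at 50% or above in at least one test.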

Results are given as percent effect.
The record does not define 0% and 100%; most values in the screen are far below 50% and negative numbers occur (in some assays of this library far below -100).
The compounds are a random part of those screened.

* CCc1cc(NC(=O)C2CCCN(C(=O)NCC(C)C)C2)[nH]n1 (stereo not drawn) | T. brucei: -1.909%; Toxoplasma: 0.9392%
* CCN(CC1CCOC1)C(=O)Nc1ccc(OC)nc1 (stereo not drawn) | T. brucei: -15.45%; Toxoplasma: -3.233%
* CN(C)c1ncnc2c1CCN(CC1CCOCC1)CC2.O=C(O)C(F)(F)F | T. brucei: -16.48%; Toxoplasma: -10.07%
* Cl.c1cnc(Nc2cc(CCC3CCCNC3)ccn2)cn1 (stereo not drawn) | T. brucei: 18.46%; Toxoplasma: -8.564%
* CCc1nc(CN2CCCC(N(C)Cc3cnn(C)c3)C2)no1 (stereo not drawn) | T. brucei: -65.93%; Toxoplasma: 1.533%
* CNc1ccc(CC2CCCN(C(=O)c3cnco3)C2)nn1 (stereo not drawn) | T. brucei: 23.72%; Toxoplasma: 1.005%
* CCn1cnnc1C1CCN(C(=O)c2ccnc(N(C)C)c2)CC1 | T. brucei: -1.349%; Toxoplasma: 7.984%
* CCN(Cc1ccoc1)C(=O)NC1CCN(CC2CCCC2)CC1 | T. brucei: -17.81%; Toxoplasma: 17.61%
* CC(=O)NC[C@@]1(COc2cnccn2)C[C@@H](O)[C@@H](O)C1.Cl | T. brucei: -22.56%; Toxoplasma: -2.95%
* O=C(c1cccnc1)N1Cc2ccccc2OCC1Cn1ccnc1 (stereo not drawn) | T. brucei: -6.981%; Toxoplasma: 10.13%
* N#CCCCOc1cccnc1NC(=O)CC1CCCCC1 | T. brucei: -55.33%; Toxoplasma: 33.78%
* CC(C)n1nnc2c(sc3nc(N4CCOCC4)c4c(c32)CCC4)c1=O | T. brucei: -46.17%; Toxoplasma: -3.364%
* CNC(=O)CC1CC2(CCN(c3ncccn3)CC2)c2ccccc21.O=C(O)C(F)(F)F (stereo not drawn) | T. brucei: -45.51%; Toxoplasma: -9.197%
* Cc1ccc(C)c(NC(=O)N2CCC3(CC2)NC(=O)CC3C(=O)O)c1 (stereo not drawn) | T. brucei: 1.802%; Toxoplasma: 20.95%
* O=C(NCCCN1CCOCC1)c1ccn(COc2ccccc2)n1 | T. brucei: -8.216%; Toxoplasma: 1.01%
* Cc1cc(NC(=O)CN2CCOC(Cn3nc(C)cc3C)C2)n(C)n1 (stereo not drawn) | T. brucei: 3.124%; Toxoplasma: -2.2%
* COc1ccc(CN2CCn3c(CNS(C)(=O)=O)nnc3C2)cc1 | Toxoplasma: -5.11%
* CCC(CN1CCOCC1)NC(=O)Cc1c(C)[nH]c2cc(C)cc(C)c12 (stereo not drawn) | T. brucei: -14.8%; Toxoplasma: 7.966%
* Cc1cccc(-c2noc(CN3CCc4c(ncn4C4CC4)C3)n2)c1 | T. brucei: -6.209%; Toxoplasma: -0.177%
* CC(C)CCN1CCNC(=O)C1CC(=O)NCCc1cc(O)ncn1 (stereo not drawn) | T. brucei: -17.31%; Toxoplasma: 4.249%
* CS(=O)(=O)NC1CCN(CCOCc2ccccc2)CC1 | T. brucei: 8.42%; Toxoplasma: -1.644%
* Cc1ccc(CN2CCC3(CC2)CC3CN(C)Cc2cccnc2)o1.O=C(O)C(F)(F)F.O=C(O)C(F)(F)F.O=C(O)C(F)(F)F (stereo not drawn) | T. brucei: -8.502%; Toxoplasma: 10.58%
* Cc1ccc2[nH]c(C(=O)NCCCn3ccnn3)c(C)c2c1 | T. brucei: -35.68%; Toxoplasma: -2.113%
* O=C(O)C(F)(F)F.O=C([C@H]1CCCO1)N1CCN(CCn2cccn2)c2ncccc2C1 | T. brucei: -89.38%; Toxoplasma: -8.188%
* CO[C@H]1CCN(C(=O)Cc2ccccn2)[C@H]1Cc1ccncc1 | T. brucei: 16.11%; Toxoplasma: -2.274%

Once more, the final 2:

{"structure": "O=C(O)C(F)(F)F.O=C([C@H]1CCCO1)N1CCN(CCn2cccn2)c2ncccc2C1", "T. brucei": -89.38, "Toxoplasma": -8.188}
{"structure": "CO[C@H]1CCN(C(=O)Cc2ccccn2)[C@H]1Cc1ccncc1", "T. brucei": 16.11, "Toxoplasma": -2.274}